Binding data for five substances are collected here from article PMC9935901, “B-lymphoid tyrosine kinase-mediated FAM83A phosphorylation elevates pancreatic tumorigenesis through interacting with β-catenin” (Signal Transduction and Targeted Therapy, 2023).

By UniProt entry, the sequences of proteins in these tests, tags left out.
UniProt P35222: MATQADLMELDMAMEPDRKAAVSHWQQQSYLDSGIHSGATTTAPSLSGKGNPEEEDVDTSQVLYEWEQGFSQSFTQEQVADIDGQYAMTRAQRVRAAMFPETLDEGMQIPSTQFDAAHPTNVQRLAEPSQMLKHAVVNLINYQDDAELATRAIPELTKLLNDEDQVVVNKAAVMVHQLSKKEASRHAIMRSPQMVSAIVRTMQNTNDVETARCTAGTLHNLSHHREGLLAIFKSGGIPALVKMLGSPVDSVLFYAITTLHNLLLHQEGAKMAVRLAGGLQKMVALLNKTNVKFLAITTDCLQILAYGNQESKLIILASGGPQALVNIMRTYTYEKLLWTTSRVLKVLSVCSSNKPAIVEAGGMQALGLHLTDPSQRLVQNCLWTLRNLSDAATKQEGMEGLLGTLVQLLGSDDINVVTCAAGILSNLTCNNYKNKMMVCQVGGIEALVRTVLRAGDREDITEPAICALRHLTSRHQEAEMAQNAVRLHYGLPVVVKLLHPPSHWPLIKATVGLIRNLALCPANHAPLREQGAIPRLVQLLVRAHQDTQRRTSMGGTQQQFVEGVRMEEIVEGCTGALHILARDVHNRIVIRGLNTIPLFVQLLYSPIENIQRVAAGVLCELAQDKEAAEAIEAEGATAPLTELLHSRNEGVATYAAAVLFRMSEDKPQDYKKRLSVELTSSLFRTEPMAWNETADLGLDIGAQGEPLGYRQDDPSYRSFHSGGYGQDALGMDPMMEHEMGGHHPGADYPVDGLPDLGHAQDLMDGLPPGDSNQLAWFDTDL
UniProt Q9NQB0: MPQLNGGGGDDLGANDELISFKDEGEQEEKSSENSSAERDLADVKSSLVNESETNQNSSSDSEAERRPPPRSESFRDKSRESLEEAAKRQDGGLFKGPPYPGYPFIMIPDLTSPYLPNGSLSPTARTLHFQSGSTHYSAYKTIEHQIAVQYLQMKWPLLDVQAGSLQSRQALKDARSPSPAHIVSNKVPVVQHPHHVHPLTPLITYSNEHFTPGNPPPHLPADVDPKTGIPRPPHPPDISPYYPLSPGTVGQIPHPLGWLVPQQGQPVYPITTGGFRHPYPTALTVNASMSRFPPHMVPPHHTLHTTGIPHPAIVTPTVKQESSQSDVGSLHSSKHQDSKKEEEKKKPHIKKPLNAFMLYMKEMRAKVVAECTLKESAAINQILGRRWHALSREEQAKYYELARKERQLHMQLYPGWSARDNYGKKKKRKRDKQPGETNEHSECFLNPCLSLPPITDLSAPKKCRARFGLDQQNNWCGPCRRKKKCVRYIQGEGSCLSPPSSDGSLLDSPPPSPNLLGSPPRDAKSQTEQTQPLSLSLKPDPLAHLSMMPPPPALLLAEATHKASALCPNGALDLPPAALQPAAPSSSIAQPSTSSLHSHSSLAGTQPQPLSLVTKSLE
UniProt O15169: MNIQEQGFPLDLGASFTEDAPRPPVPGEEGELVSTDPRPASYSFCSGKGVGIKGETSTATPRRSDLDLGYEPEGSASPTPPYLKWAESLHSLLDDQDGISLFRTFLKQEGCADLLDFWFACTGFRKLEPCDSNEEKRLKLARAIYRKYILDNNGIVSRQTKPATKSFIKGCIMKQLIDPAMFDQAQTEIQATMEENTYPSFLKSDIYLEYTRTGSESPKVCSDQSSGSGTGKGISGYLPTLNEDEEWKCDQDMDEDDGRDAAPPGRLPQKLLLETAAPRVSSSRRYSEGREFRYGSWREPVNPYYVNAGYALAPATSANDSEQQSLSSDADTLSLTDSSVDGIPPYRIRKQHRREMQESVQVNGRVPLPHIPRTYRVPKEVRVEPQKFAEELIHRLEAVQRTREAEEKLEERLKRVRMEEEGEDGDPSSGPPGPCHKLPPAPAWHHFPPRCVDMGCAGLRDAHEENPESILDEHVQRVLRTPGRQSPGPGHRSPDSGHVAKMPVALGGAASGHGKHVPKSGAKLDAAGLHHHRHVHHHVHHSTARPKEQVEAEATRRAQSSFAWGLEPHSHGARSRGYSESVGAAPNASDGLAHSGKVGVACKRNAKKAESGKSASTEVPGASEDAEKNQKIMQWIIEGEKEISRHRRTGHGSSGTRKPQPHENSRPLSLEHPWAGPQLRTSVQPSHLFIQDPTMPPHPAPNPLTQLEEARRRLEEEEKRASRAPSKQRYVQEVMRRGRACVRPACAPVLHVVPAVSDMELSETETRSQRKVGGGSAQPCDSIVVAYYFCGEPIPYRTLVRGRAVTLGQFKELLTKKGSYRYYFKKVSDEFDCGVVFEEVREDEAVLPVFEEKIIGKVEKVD
UniProt P51451: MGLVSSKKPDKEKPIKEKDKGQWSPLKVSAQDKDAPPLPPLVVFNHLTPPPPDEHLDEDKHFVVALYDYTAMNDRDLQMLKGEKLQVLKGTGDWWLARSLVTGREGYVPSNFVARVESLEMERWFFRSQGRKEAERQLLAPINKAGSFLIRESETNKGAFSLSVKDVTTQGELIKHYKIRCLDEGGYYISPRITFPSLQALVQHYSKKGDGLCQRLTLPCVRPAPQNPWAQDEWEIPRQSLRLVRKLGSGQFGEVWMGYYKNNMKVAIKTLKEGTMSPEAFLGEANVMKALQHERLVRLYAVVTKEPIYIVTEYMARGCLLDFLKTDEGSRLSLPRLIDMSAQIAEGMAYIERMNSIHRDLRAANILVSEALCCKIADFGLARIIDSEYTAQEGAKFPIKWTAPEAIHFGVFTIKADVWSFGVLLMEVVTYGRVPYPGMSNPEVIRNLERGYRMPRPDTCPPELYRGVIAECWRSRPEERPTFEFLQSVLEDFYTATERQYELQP
UniProt Q13547: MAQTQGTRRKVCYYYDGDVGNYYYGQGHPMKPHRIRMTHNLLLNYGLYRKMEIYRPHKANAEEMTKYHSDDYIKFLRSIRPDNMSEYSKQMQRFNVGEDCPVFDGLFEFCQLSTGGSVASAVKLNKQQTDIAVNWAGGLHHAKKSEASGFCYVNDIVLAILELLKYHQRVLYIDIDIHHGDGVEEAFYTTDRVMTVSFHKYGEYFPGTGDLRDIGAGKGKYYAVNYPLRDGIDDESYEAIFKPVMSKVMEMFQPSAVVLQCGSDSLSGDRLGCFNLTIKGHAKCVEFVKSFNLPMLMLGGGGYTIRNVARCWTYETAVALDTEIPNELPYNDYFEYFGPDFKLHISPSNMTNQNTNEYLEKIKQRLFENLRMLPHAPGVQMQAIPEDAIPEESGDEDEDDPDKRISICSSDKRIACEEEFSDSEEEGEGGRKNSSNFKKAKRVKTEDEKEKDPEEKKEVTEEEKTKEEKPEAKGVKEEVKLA
UniProt Q92769: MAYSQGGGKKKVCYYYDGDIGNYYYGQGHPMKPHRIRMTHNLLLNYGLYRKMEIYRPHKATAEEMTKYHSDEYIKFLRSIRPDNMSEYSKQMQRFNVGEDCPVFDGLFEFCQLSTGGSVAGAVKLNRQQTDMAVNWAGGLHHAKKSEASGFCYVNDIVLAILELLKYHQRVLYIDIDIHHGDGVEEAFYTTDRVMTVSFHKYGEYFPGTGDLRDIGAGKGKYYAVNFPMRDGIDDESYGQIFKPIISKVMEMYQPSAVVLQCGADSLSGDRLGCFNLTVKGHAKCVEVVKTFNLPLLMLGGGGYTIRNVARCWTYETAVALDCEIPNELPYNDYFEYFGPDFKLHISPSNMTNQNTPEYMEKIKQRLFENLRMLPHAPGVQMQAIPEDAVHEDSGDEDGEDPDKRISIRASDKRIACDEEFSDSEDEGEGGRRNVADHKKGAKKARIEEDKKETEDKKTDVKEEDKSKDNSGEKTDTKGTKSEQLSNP

Results are given in words; binding and its absence hold for the method and conditions named. Binding seen in cells or lysates may run through a third protein. Some results given as binding are weak or reduced against the parent protein; the word gives no strength. For some of these results: Where a sequence is shown, tags or fusion partners need not be part of it.

Experiment [1] deals with GFP-tagged β-catenin (UniProt P35222). Briefly: co-IP; PANC-1 cells transfected with GFP-tagged β-catenin (with HA-tagged GSK3β or AXIN1, or endogenous partners); with or without FAM83A knockdown, BLK overexpression or knockdown.
Experiment [2] deals with T1, Flag-tagged FAM83A (UniProt Q86UY5).
T1 sequence: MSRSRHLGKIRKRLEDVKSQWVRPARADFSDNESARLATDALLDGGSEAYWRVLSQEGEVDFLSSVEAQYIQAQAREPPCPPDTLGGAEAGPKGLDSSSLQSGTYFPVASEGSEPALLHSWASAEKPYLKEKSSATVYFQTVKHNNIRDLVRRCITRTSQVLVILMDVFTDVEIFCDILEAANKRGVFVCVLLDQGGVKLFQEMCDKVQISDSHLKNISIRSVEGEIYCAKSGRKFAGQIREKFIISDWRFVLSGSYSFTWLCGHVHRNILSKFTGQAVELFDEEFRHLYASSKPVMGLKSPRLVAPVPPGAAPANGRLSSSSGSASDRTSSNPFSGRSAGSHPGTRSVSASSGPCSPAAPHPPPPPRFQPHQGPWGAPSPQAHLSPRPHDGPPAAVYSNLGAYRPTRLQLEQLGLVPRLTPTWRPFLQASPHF
Briefly: co-IP; HEK293T cells transfected for 48 h, IP and western blotting; with or without BLK, FAM83A wild type, Y138A or Y138D, saracatinib.

In experiment [3] the target is GFP-tagged β-catenin (UniProt P35222). The description is as above.
In experiment [4] the target is endogenous β-catenin (human (endogenous in PANC-1 and HEK293T)) (UniProt P35222). Briefly: co-IP; endogenous proteins in PANC-1 cell lysates, western blotting; with or without FAM83A knockdown, Flag-FAM83A overexpression or peptide treatment.
For experiment [5], the target named is endogenous TCF4 (human (endogenous in PANC-1)) (UniProt Q9NQB0). Briefly: co-IP; HEK293T cells transfected for 48 h, IP and western blotting; with or without BLK, FAM83A wild type, Y138A or Y138D, saracatinib. (In general: A western blot detects proteins with antibodies after separation by electrophoresis.)
Experiment [6] shares this target. Briefly: co-IP; endogenous proteins in PANC-1 cell lysates, western blotting; with or without FAM83A knockdown, Flag-FAM83A overexpression or peptide treatment.

Regarding “HA-tagged AXIN1 (from UniProt O15169 1-862)”, the binding result in experiment [1] is given as “binds”.
With “HA-tagged BLK (from UniProt P51451 1-505) (enzyme)”, in experiment [2], the binding entry is reported as “binds”.
On to “endogenous AXIN1 (from UniProt O15169 1-862)”, for which the binding result in experiment [3], in experiment [4] and in experiment [1] was “binds” in each case.
With “endogenous HDAC1 (from UniProt Q13547 1-482)”, the binding entry in experiment [5], in experiment [6] and in experiment [4] was “binds” throughout.
For the substance “endogenous HDAC2 (from UniProt Q92769 1-488)”, the binding result in experiment [5] and in experiment [6] was “binds” each time.
